{"source": "PubChem BioAssay AID686943 (Drosophila RNAi Screening Center, 2013)", "assay": "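Knockdowns that increase or decrease active ERK after insulin receptor stimulation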 (primary screen)", "system": "Drosophila S2R+ haemocyte-like cells expressing YFP-tagged ERK (Rolled)", "reagent": "long dsRNA against Drosophila genes", "treatment": "insulin stimulation versus unstimulated cells; dose and duration not given", "measurement": "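Antibody staining for doubly phosphorylated ERK divided by ERK-YFP signal, as plate z-scores, in insulin-treated and untreated cells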", "reading the numbers": "replicate 1, z-score of dpERK with insulin and replicate 2, z-score of dpERK with insulin: higher = more active ERK per ERK-YFP after insulin", "note": "The screen tested about 23,000 reagents; below is an unselected part of those with a known target gene and a result. 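Extra replicates exist only for a retested subset of genes; insulin dose and duration not given; both raised and lowered dpERK matter.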 Further read-outs or replicates are left out here. Not given: the amount of reagent, the time to read-out."}
{"gene knocked down": "CG8607", "dsRNA": "DRSC11012", "replicate 1, z-score of dpERK with insulin": -0.53, "replicate 2, z-score of dpERK with insulin": -0.11}
{"gene knocked down": "Dpp10", "dsRNA": "DRSC00942", "replicate 1, z-score of dpERK with insulin": -1.4, "replicate 2, z-score of dpERK with insulin": -0.77}
{"gene knocked down": "Dpp10", "dsRNA": "DRSC02139", "replicate 1, z-score of dpERK with insulin": 0.45, "replicate 2, z-score of dpERK with insulin": 0.36}
{"gene knocked down": "Mur29B", "dsRNA": "DRSC01018", "replicate 1, z-score of dpERK with insulin": 1.17, "replicate 2, z-score of dpERK with insulin": 1.32}
{"gene knocked down": "Mur29B", "dsRNA": "DRSC02376", "replicate 1, z-score of dpERK with insulin": -0.29, "replicate 2, z-score of dpERK with insulin": 0.84}
{"gene knocked down": "CG32081", "dsRNA": "DRSC09861", "replicate 1, z-score of dpERK with insulin": 0.5, "replicate 2, z-score of dpERK with insulin": 0.47}
{"gene knocked down": "Sec31", "dsRNA": "DRSC07131", "replicate 1, z-score of dpERK with insulin": 0.45, "replicate 2, z-score of dpERK with insulin": -0.07}
{"gene knocked down": "yellow-f", "dsRNA": "DRSC15348", "replicate 1, z-score of dpERK with insulin": 0.27, "replicate 2, z-score of dpERK with insulin": -1.61}
{"gene knocked down": "CG12398", "dsRNA": "DRSC19454", "replicate 1, z-score of dpERK with insulin": -1.71, "replicate 2, z-score of dpERK with insulin": -1.34}
{"gene knocked down": "Ist1", "dsRNA": "DRSC09697", "replicate 1, z-score of dpERK with insulin": 0.36, "replicate 2, z-score of dpERK with insulin": 1.06}
{"gene knocked down": "crc", "dsRNA": "DRSC03513", "replicate 1, z-score of dpERK with insulin": -0.47, "replicate 2, z-score of dpERK with insulin": 0.77}
{"gene knocked down": "CG17287", "dsRNA": "DRSC06659", "replicate 1, z-score of dpERK with insulin": -0.72, "replicate 2, z-score of dpERK with insulin": -0.07}

Records above whose gene name starts with C or c:
{"gene knocked down": "CG8607", "dsRNA": "DRSC11012", "replicate 1, z-score of dpERK with insulin": -0.53, "replicate 2, z-score of dpERK with insulin": -0.11}
{"gene knocked down": "CG32081", "dsRNA": "DRSC09861", "replicate 1, z-score of dpERK with insulin": 0.5, "replicate 2, z-score of dpERK with insulin": 0.47}
{"gene knocked down": "CG12398", "dsRNA": "DRSC19454", "replicate 1, z-score of dpERK with insulin": -1.71, "replicate 2, z-score of dpERK with insulin": -1.34}
{"gene knocked down": "crc", "dsRNA": "DRSC03513", "replicate 1, z-score of dpERK with insulin": -0.47, "replicate 2, z-score of dpERK with insulin": 0.77}
{"gene knocked down": "CG17287", "dsRNA": "DRSC06659", "replicate 1, z-score of dpERK with insulin": -0.72, "replicate 2, z-score of dpERK with insulin": -0.07}
